In all, about 33,000 sequences were measured (“E-score (-0.5 to 0.5)”: median about -0.016, highest 2% from about 0.3 on). Some of the results follow.
What follows are sequences tested against T1, Yer184c (UniProt P39961) (assay: PBM E-score (8-mer binding enrichment) (E-score (-0.5 to 0.5)); higher = stronger / more preferred TF binding). Conditions: protein concentration: 100 nM; construct: GST-full length.
T1 sequence: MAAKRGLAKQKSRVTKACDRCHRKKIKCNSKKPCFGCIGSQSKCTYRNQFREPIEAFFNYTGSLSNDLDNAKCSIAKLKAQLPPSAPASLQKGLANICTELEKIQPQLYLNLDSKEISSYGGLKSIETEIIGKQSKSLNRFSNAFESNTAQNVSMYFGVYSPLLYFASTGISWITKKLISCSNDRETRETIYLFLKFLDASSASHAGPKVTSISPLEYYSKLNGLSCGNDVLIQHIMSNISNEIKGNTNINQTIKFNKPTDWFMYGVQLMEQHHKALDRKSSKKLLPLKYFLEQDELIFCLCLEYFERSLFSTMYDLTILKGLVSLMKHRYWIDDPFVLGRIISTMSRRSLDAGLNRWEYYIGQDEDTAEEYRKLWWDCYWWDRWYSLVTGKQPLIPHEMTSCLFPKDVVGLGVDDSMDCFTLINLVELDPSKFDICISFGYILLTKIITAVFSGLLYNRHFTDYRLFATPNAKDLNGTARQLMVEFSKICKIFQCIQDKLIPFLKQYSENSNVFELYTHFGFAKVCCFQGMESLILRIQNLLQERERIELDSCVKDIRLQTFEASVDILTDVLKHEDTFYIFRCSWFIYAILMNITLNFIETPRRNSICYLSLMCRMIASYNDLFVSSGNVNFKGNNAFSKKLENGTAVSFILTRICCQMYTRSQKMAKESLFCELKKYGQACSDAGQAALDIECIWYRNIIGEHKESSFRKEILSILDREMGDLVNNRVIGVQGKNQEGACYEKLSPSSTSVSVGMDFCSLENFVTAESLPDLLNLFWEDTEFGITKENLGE
Outline: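 PURExpress in vitro transcription/translation supplied GST-tagged yeast transcription factors, either full-length or DNA-binding domain. Applied at about 100-200 nM to universal all-10-mer Agilent arrays double-stranded by primer extension, the bound protein was detected with fluorescent anti-GST. E-scores, modified Wilcoxon-Mann-Whitney statistics, were given by the Universal PBM Analysis Suite to ungapped eight-base words pooled with their reverse complements after masliner normalisation.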

Row | Sequence | PBM E-score
1 | AGTTACCG | 0.292
2 | TGAACCAA | 0.18
3 | AAATCAAA | 0.13
4 | ACGTACTA | -0.0775
5 | CGATTCTC | 0.00611
6 | GAGGGGAA | -0.102
7 | GACCCGCA | -0.112
8 | CCTACTCC | -0.129
9 | GCGCTCCA | -0.16
10 | CGGACGAA | 0.353
11 | ACGGGCCC | 0.0185
12 | GGACTTGA | -0.175
13 | ATTCTTGG | 0.232
14 | ATTAAACC | 0.113
15 | AGACCCCT | -0.37
16 | ATCAATGA | 0.2
17 | GGCCCACC | -0.215
18 | ATTGATGG | -0.00116
19 | CGACGGAG | 0.115
20 | CACCGGTG | 0.0474
21 | CCTACGAA | -0.115
22 | CCGTTCAC | -0.211
23 | GAAGGTCA | -0.19
24 | ACCTCCTC | -0.135
25 | CGCATCGC | -0.097

Row | Sequence | PBM E-score
26 | CCCTTCTC | -0.349
27 | GAATCTCC | 0.0252
28 | CTTGTGTA | 0.0286
29 | CCGAAAGA | 0.215
30 | ATCCTCCG | 0.118
31 | GACAATAA | 0.131
32 | CTAGTAAC | -0.0898
33 | CGACACTC | 0.058
34 | ATCGTCGC | -0.0233
35 | CAGCGCGG | 0.00233
36 | CACAGCTG | -0.204
37 | ATTGTACC | 0.0761
38 | CTCACGGC | 0.0169
39 | GGTACCGA | 0.169
40 | TACGCCGA | 0.237
41 | AAATAGGG | -0.0569
42 | GGCACTTA | -0.112
43 | CAGTTAGG | -0.149
44 | AGTCTTAG | -0.125
45 | GAAAAACC | 0.204
46 | AAATTTAC | 0.244
47 | CTCGGTGC | -0.0357
48 | CGCACTGC | -0.116
49 | ACGCAGGG | -0.0548
50 | AAGCGGGG | -0.312

Row | Sequence | PBM E-score
51 | CGTTTAAG | 0.0519
52 | AGCTCAGC | -0.234
53 | AACCATCG | 0.185
54 | AACTGTAC | -0.0839
55 | GTGAATCA | -0.0703
56 | AAATGTGT | 0.115
57 | AGACGTCT | -0.214
58 | TCAATGCA | -0.0376
59 | CTGATGTA | -0.00146
60 | AGCGAATA | 0.066
61 | ACCTTGAG | -0.0404
62 | GGGTAAAC | 0.0809
63 | GAACAGTA | 0.246
64 | ACCAGGGT | -0.265
65 | CAGAATGG | 0.0505
66 | GTTATACA | 0.129
67 | CCGGCCCC | -0.00948
68 | CGCAAGGC | 0.0502
69 | ATCCTACA | -0.089
70 | CGGAGCAC | 0.102
71 | ATCATGCG | 0.0102
72 | ATTCAAAG | 0.0128
73 | ACGGGGAG | -0.108
74 | CGTAACAG | -0.105
75 | CGCGGGTC | 0.232

A stretch taken from the entries so far:
Row | Sequence | PBM E-score
2 | TGAACCAA | 0.18
3 | AAATCAAA | 0.13
4 | ACGTACTA | -0.0775
5 | CGATTCTC | 0.00611
6 | GAGGGGAA | -0.102
7 | GACCCGCA | -0.112
8 | CCTACTCC | -0.129
9 | GCGCTCCA | -0.16
10 | CGGACGAA | 0.353
11 | ACGGGCCC | 0.0185
12 | GGACTTGA | -0.175
13 | ATTCTTGG | 0.232
14 | ATTAAACC | 0.113
15 | AGACCCCT | -0.37
16 | ATCAATGA | 0.2
17 | GGCCCACC | -0.215
18 | ATTGATGG | -0.00116
19 | CGACGGAG | 0.115
20 | CACCGGTG | 0.0474
21 | CCTACGAA | -0.115
22 | CCGTTCAC | -0.211
23 | GAAGGTCA | -0.19
24 | ACCTCCTC | -0.135
25 | CGCATCGC | -0.097
26 | CCCTTCTC | -0.349
27 | GAATCTCC | 0.0252
28 | CTTGTGTA | 0.0286
29 | CCGAAAGA | 0.215
30 | ATCCTCCG | 0.118
31 | GACAATAA | 0.131
32 | CTAGTAAC | -0.0898
33 | CGACACTC | 0.058
34 | ATCGTCGC | -0.0233
35 | CAGCGCGG | 0.00233
36 | CACAGCTG | -0.204
37 | ATTGTACC | 0.0761
38 | CTCACGGC | 0.0169
39 | GGTACCGA | 0.169
40 | TACGCCGA | 0.237
41 | AAATAGGG | -0.0569
42 | GGCACTTA | -0.112
43 | CAGTTAGG | -0.149
44 | AGTCTTAG | -0.125
45 | GAAAAACC | 0.204
46 | AAATTTAC | 0.244
47 | CTCGGTGC | -0.0357
48 | CGCACTGC | -0.116

Next part

Row | Sequence | PBM E-score
76 | CAACGACA | 0.00773
77 | CCTTAGTA | -0.0225
78 | AACTCCGC | -0.0142
79 | CAGACCTA | -0.149
80 | AGTTCGAG | -0.00888
81 | AAATTCAC | 0.175
82 | GATAAATA | 0.186
83 | TGGTTGAA | -0.0916
84 | GGCTAAAC | -0.0419
85 | CACCGAAG | 0.192
86 | ATGATCCC | -0.00892
87 | AACGTCAC | -0.0992
88 | GGGCGCAA | -0.076
89 | GGATTATA | 0.159
90 | TAGAGAGA | -0.0595
91 | CCCCAGGG | -0.297
92 | ACAAATCA | -0.0458
93 | AGAGATGG | 0.0255
94 | GTGATAAC | -0.0196
95 | GGATCACA | 0.0283
96 | CACCGCCA | -0.223
97 | GCGTCGCC | -0.114
98 | CAATTGCC | 0.025
99 | ATGCCCAC | -0.0514
100 | CGGTTCTA | 0.125

Row | Sequence | PBM E-score
101 | CTCCAACC | 0.0803
102 | CTCGAAAA | -0.0323
103 | CAAAAACG | 0.128
104 | CGGGGGCA | -0.344
105 | CAACCAAG | -0.0924
106 | GACGAATC | 0.0978
107 | AGTAACAG | 0.117
108 | AAGCCCGG | 0.294
109 | CGCTCATA | -0.11
110 | AGATACCC | 0.108
111 | ACATGAGC | -0.0914
112 | GAACGATA | -0.00864
113 | CAGACCCC | -0.313
114 | ACCTCTGG | -0.287
115 | AAACCCTA | -0.0932
116 | CACTAATG | -0.00249
117 | ACCAGTCT | -0.149
118 | AAGTATAC | 0.0725
119 | GTGACGCA | -0.0588
120 | ACGTCTGG | -0.0611
121 | ACTCCCCC | -0.285
122 | ACTTGAAC | 0.0776
123 | ACCGGTTG | 0.285
124 | CGTCTCTC | 0.108
125 | ACTCTTCA | 0.0248

Row | Sequence | PBM E-score
126 | GTCGAATA | -0.0617
127 | CATAATGG | -0.301
128 | ATACGCTA | 0.0126
129 | AGACGGAG | 0.0315
130 | GATATGAA | 0.156
131 | CACAGCGA | 0.0717
132 | CCGTTACC | 0.0881
133 | ATTATGTA | 0.183
134 | ATCTTAGA | 0.15
135 | CTCTGCAA | 0.0889
136 | ATTCCTAA | 0.134
137 | TGTCATAA | 0.0101
138 | GCGACTCC | -0.276
139 | GATCAAAA | 0.157
140 | AAACGAAG | -0.0517
141 | CGACGTTC | -0.244
142 | GTGCGCCA | -0.118
143 | GTAAAAAA | 0.17
144 | TGGCTAAA | 0.0133
145 | AACTCTTG | -0.125
146 | AGTCTGGG | -0.227
147 | AACACGGC | 0.132
148 | AGTCGATA | -0.133
149 | AGATGGGA | -0.194
150 | AGCAATGC | 0.0377

Row | Sequence | PBM E-score
151 | AGACAGAT | 0.0536
152 | ATAAGGCC | -0.0371
153 | AGTCGTTA | -0.148
154 | ACGGTGTA | -0.0851
155 | CGTCCCCC | -0.275
156 | ATAATCGG | 0.299
157 | ATACCATC | -0.0833
158 | CCTTGTTA | 0.00089
159 | ATCTGATG | -0.168
160 | GCGGAAAC | 0.0908
161 | ACAGTGCG | -0.236
162 | GAGCGATA | -0.084
163 | ACTCCTCG | 0.0636
164 | GCGCACAA | 0.17
165 | AAGAATAT | -0.00876
166 | CTAGTTGC | -0.00127
167 | ACGAGCGA | -0.107
168 | GACTACAA | -0.114
169 | CGCAGATA | 0.0637
170 | ATCTCGAC | -0.0837
171 | GAATGGCA | 0.135
172 | CAGGAGGA | -0.251
173 | GTATCTAA | 0.171
174 | AGGCAGTA | -0.153
175 | TAACGAAA | 0.239

Row | Sequence | PBM E-score
176 | ACAAAAAC | 0.238
177 | GAACATAC | 0.191
178 | GGCAACAC | 0.0425
179 | TCCGTACA | 0.219
180 | CACAAGCA | -0.0822
181 | GGGCAACA | -0.0183
182 | GATGATAA | 0.152
183 | ATTCAAGG | -0.194
184 | AACTGAGA | 0.0276
185 | CCCAATCG | -0.0948
186 | ACCAGCGT | -0.175
187 | AGCGTACA | -0.142
188 | ATCATGGG | -0.124
189 | CCCCCGAG | -0.316
190 | AGGCCCGG | 0.0336
191 | AGAAGTTA | 0.00342
192 | AAGGGCCC | -0.28
193 | ATCACGCG | 0.136
194 | AAAAGGTG | -0.0762
195 | ATACTAGG | 0.00209
196 | AGAGACAT | -0.0279
197 | AGTGACGA | 0.0473
198 | CACGTCCG | -0.0881
199 | AGAGTTTA | 0.175
200 | GGGGTTAA | -0.125

Row | Sequence | PBM E-score
201 | CGGACGGA | 0.189
202 | AACCGGAT | 0.366
203 | ATGTTCCG | 0.347
204 | GATCATCC | 0.117
205 | ACAATTAG | -0.0226
206 | CCCGCACC | -0.276
207 | CTCAAATA | 0.0767
208 | GGTAAGAC | 0.0174
209 | ACAAGGCC | -0.189
210 | CTGATTTA | 0.139
211 | AGCTGGAT | -0.0937
212 | CTTATACA | 0.0241
213 | ACCAATCC | 0.0831
214 | AAACTGGT | -0.00684
215 | GACACTGA | 0.107
216 | CCTTGAAC | -0.0919
217 | GAGTGTAC | -0.121
218 | GTAGCACA | -0.144
219 | AAAAGACC | -0.107
